PubChem BioAssay AID652243 | Drosophila RNAi Screening Center, 2013
Aim: 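Fly regulators of androgen-dependent reporter output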 (primary screen). Cell system: Drosophila S2R+ cells. Knock-down reagent: long dsRNA against Drosophila genes. Time to read-out: 72 h (48 h, then 24 h hormone). Treatment: synthetic androgen R1881 at 10 nM for 24 h. Measurement: 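Per-well raw luminescence of the androgen-driven firefly reporter and of the Renilla control, two replicates each, without normalisation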. Direction: firefly reporter light: higher = more light from androgen-responsive reporter; Renilla control light: higher = more constitutive control signal (cell number, transfection). Call rule: 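Hit when the log firefly-to-Renilla ratio dropped or increased by a fixed fold versus the mean of GFP or LacZ controls across duplicate plates; lowering cut given as 1.5 and as 3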. Calls: active = hit: reporter lowered or raised; inactive = no hit.
The deposit covers about 24,000 reagents; shown is a random part of those that have a named target and a result. Over the whole deposit, 246 (1%) got an active call. 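Plates not normalised; calls are printed but the firefly/Renilla ratio behind them is not deposited; fold cut for lowering reported inconsistently.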 Raw values are not corrected between plates. Reagents against one gene are numbered here. Reagent sequences are not shown. The record does not give: the amount of reagent.

no.	gene	reagent	firefly reporter light, replicate 1	firefly reporter light, replicate 2	Renilla control light, replicate 1	Renilla control light, replicate 2	outcome
1	CG6592	1	66614	75658	6.86e5	9.34e5	inactive
2	scu (scully)	1	4.23e5	4.11e5	3.70e6	2.92e6	inactive
3	scu (scully)	2	3.69e5	2.00e5	5.94e5	4.48e5	inactive
4	CG6329	1	1.44e6	1.55e6	3.02e6	3.41e6	inactive
5	Polr2I (RNA polymerase II subunit I)	1	2.11e5	1.55e5	1.42e6	1.48e6	inactive
6	CG14384	1	79767	80823	1.47e6	9.79e5	inactive
7	CG18234	1	2.54e5	2.60e5	2.40e6	2.64e6	inactive
8	CG33986	1	1.17e5	1.22e5	7.31e5	5.64e5	inactive
9	Erasp (Endoplasmic reticulum stress-associated serine protease)	1	1.01e6	1.25e6	1.45e6	2.08e6	inactive
10	gammaTub37C (gamma-Tubulin at 37C)	1	9.08e5	9.29e5	1.29e6	1.20e6	inactive
11	gammaTub37C (gamma-Tubulin at 37C)	2	4.15e5	5.76e5	9.94e5	8.32e5	inactive
12	Nlg2 (Neuroligin 2)	1	8.58e5	3.60e5	1.21e5	49441	inactive
13	Nlg2 (Neuroligin 2)	2	1.38e5	2.81e5	2.52e6	2.34e6	inactive
14	Nlg2 (Neuroligin 2)	3	3.13e5	3.58e5	4.44e5	5.24e5	inactive
15	Lsm10	1	1.60e5	1.14e5	1.32e6	6.89e5	inactive
16	LeuRS (Leucyl-tRNA synthetase)	1	1.25e5	96708	1.08e6	8.09e5	inactive
17	CG33702	1	7.62e5	7.43e5	2.38e6	1.80e6	inactive
18	Gr93a (Gustatory receptor 93a)	1	3.26e5	3.90e5	5.20e6	3.96e6	inactive
19	CG15803	1	89024	1.18e5	1.47e6	1.69e6	inactive
20	RapGAP1 (Rap GTPase activating protein 1)	1	3.42e5	3.38e5	1.56e6	1.79e6	inactive
21	RapGAP1 (Rap GTPase activating protein 1)	2	2.29e5	2.12e5	1.41e6	1.38e6	inactive
22	RapGAP1 (Rap GTPase activating protein 1)	3	2.03e5	2.20e5	1.76e6	1.59e6	inactive
23	RapGAP1 (Rap GTPase activating protein 1)	4	6.61e5	7.37e5	1.98e6	2.15e6	inactive
24	RapGAP1 (Rap GTPase activating protein 1)	5	3.72e5	4.92e5	1.53e6	1.71e6	inactive
25	RapGAP1 (Rap GTPase activating protein 1)	6	4.89e5	6.51e5	9.03e5	9.03e5	inactive

Reformatted: results already given
Nlg2 (Neuroligin 2) #1
- firefly reporter light, replicate 1: 8.58e5
- firefly reporter light, replicate 2: 3.60e5
- Renilla control light, replicate 1: 1.21e5
- Renilla control light, replicate 2: 49441
- outcome: inactive

Nlg2 (Neuroligin 2) #2
- firefly reporter light, replicate 1: 1.38e5
- firefly reporter light, replicate 2: 2.81e5
- Renilla control light, replicate 1: 2.52e6
- Renilla control light, replicate 2: 2.34e6
- outcome: inactive
